We go through 67 molecules from the supplement of paper PMC6414424.

Counter-ions that a name gives are not always drawn. ± gives the standard deviation of the averaged measurements. Some of the results follow.

This test has as its system APPdp1-6 iPSC-derived neurons. Kind of test: pThr231Tau/total Tau ratio Z-score vs DMSO vehicle wells; higher = more pThr231Tau relative to total Tau. The following applies: 5 µM; treatment time 5 days.
Take `Cc1cn([C@H]2C=C[C@@H](CO)O2)c(=O)[nH]c1=O` [Prestw-1279]: the “pThr231Tau/total Tau ratio Z-score” value was found to be 0.733 ± 0.33.
As to `CCN(CC)CC(=O)Nc1c(C)cccc1C` [Prestw-50], the “pThr231Tau/total Tau ratio Z-score” value was -0.00552 ± 0.87.
Regarding `c1ccc2c(CC3=NCCN3)cccc2c1` [Prestw-46], the “pThr231Tau/total Tau ratio Z-score” value was 0.196 ± 1.4.
`CC(=O)OCC(=O)[C@@]12OC(C)(C)O[C@@H]1C[C@H]1[C@@H]3C[C@H](F)C4=CC(=O)C=C[C@]4(C)[C@@]3(F)[C@@H](O)C[C@@]12C` [Prestw-774]: the “pThr231Tau/total Tau ratio Z-score” value was determined as 0.499 ± 0.61.
Next, `CCC(C)CCCCC(=O)NCC[C@@H]1NC(=O)[C@H](CC(C)C)NC(=O)[C@H](CCN)NC(=O)[C@H](CC(C)C)NC(=O)[C@H](CCN)NC(=O)[C@H](CCN)NC(=O)[C@H](CCN)NC(=O)[C@H]([C@@H](C)O)NC1=O` (some centres not stated): 0.919 ± 1.1.
For `NC(N)=NC(=O)c1nc(Cl)c(N)nc1N` [Prestw-7], the “pThr231Tau/total Tau ratio Z-score” value is 0.663 ± 0.52.
`O=c1oc2c(O)c(O)cc3c(=O)oc4c(O)c(O)cc1c4c23` [Ellagic acid]: the “pThr231Tau/total Tau ratio Z-score” value is 0.774 ± 0.63.
Take `CO[C@@H]1[C@@H](O[C@@H]2O[C@H](C)[C@@H](O[C@H]3C[C@@](C)(O)[C@@H](OC(=O)CC(C)C)[C@H](C)O3)[C@H](N(C)C)[C@H]2O)[C@@H](CC=O)C[C@@H](C)[C@@H](O)/C=C/C=C/C[C@@H](C)OC(=O)C[C@H]1OC(C)=O` [Prestw-154]: the “pThr231Tau/total Tau ratio Z-score” value is -0.769 ± 0.017.
Take `CO[C@@H]1[C@@H](O[C@@H]2O[C@H](C)[C@@H](O[C@H]3C[C@@](C)(O)[C@@H](OC(=O)CC(C)C)[C@H](C)O3)[C@H](N(C)C)[C@H]2O)[C@@H](CC=O)C[C@@H](C)[C@@H](O)/C=C/C=C/C[C@@H](C)OC(=O)C[C@H]1OC(C)=O` [JOSAMYCIN, antibacterial]: the “pThr231Tau/total Tau ratio Z-score” value is 0.66 ± 0.046.
With `c1coc(CNc2ncnc3nc[nH]c23)c1` [Prestw-659] the figure was 0.69 ± 0.79; with `CC(=O)CC(c1ccccc1)c1c(O)c2ccccc2oc1=O` (configuration not stated) [Prestw-1363], -0.848 ± 1.3; with `O=C1NS(=O)(=O)c2ccccc21` [SACCHARIN    Therap cat: sweetener], 1.92.
With `NS(=O)(=O)c1cc2c(cc1Cl)NC(C1CC3C=CC1C3)NS2(=O)=O` (configuration not stated) [Blocks the rapid desensitization of AMPA glutamate receptors] the figure was 0.0669 ± 0.37; with `CN1C(=O)CC[C@H]1c1cccnc1` [Major metabolite of nicotine in humans], 0.199 ± 0.098.
With `CC[C@@H]1C(=O)OC[C@@H]1Cc1cncn1C` [Prestw-449] the figure was 0.935 ± 1.3; with `CCC1(C)OC(=O)N(C)C1=O` (configuration not stated) [PARAMETHADIONE, anticonvulsant], -0.577 ± 0.95.
Take `O=C(OOC(=O)c1ccccc1)c1ccccc1` [BENZOYL PEROXIDE, keratolytic]: the “pThr231Tau/total Tau ratio Z-score” value stood at 0.779 ± 0.87.
With `N[C@@H](Cc1c[nH]c2ccccc12)C(=O)O` [TRYPTOPHAN    component of casein; antidepressant; nutrient] the figure was 0.841 ± 1.2; with `CC(O)Cn1cnc2c1c(=O)n(C)c(=O)n2C` (configuration not stated), -0.138 ± 0.099; with `CC(C)NC[C@@H](O)COc1ccc(CC(N)=O)cc1` [Prestw-953], -0.336 ± 1.2.
With `CC(C)NC[C@@H](O)COc1ccc(CC(N)=O)cc1` [Prestw-536] the figure was 0.437 ± 0.21; with `NS(=O)(=O)c1cc2c(cc1C(F)(F)F)NCNS2(=O)=O` [Prestw-13], 1.52 ± 0.016; with `NC(=O)CCCCC1CCSS1` (configuration not stated) [Lipoamide], 0.337 ± 1.4.
As to `CS(=O)(=O)OCCCCOS(C)(=O)=O` [Prestw-1179], the “pThr231Tau/total Tau ratio Z-score” value is 0.22 ± 0.081.
Next, `Cc1c(NC(=O)c2cccnc2)c(=O)n(-c2ccccc2)n1C` [Prestw-225]: 0.35 ± 0.78; `Nc1nc2c(ncn2COCCO)c(=O)[nH]1` [Prestw-86]: -0.291 ± 0.61.
In the case of `CC(C)(C)NC(=O)[C@@H]1C[C@@H]2CCCC[C@@H]2CN1C[C@@H](O)[C@H](Cc1ccccc1)NC(=O)[C@H](CC(N)=O)NC(=O)c1ccc2ccccc2n1` [Prestw-1114], the “pThr231Tau/total Tau ratio Z-score” value is 0.918 ± 2.1.
With `CCCCCN(CCCCC)C(=O)C(CCC(=O)O)NC(=O)c1ccc(Cl)c(Cl)c1` (configuration not stated) [Prestw-915] the figure was -0.337 ± 0.54.
With `COc1c(N2C[C@@H]3CCCN[C@@H]3C2)c(F)cc2c(=O)c(C(=O)O)cn(C3CC3)c12` [Prestw-1446] the figure was -0.148 ± 0.19.
Next, `COc1c(N2C[C@@H]3CCCN[C@@H]3C2)c(F)cc2c(=O)c(C(=O)O)cn(C3CC3)c12` [MOXIFLOXACIN HYDROCHLORIDE, antibacterial]: 0.41 ± 1.1.
Consider `COc1ccc(C(=O)c2ccccc2)c(O)c1` [Prestw-887], for which the “pThr231Tau/total Tau ratio Z-score” value was determined as 0.793 ± 1.9.
Next, `COc1ncnc(NS(=O)(=O)c2ccc(N)cc2)c1OC` [Prestw-1094]: -0.43 ± 0.55.
Next, `CC(=O)OCC(=O)[C@@]1(O)[C@H](C)C[C@H]2[C@@H]3CCC4=CC(=O)C=C[C@]4(C)[C@@]3(F)[C@@H](O)C[C@@]21C` [Prestw-130]: -0.302 ± 0.093; `COc1ccc(C(=O)CC(=O)c2ccc(C(C)(C)C)cc2)cc1` [AVOBENZONE    Therap cat: sunscreen]: 1.07 ± 1.1.
With `CCOC(=O)C1=C(C)NC(C)=C(C(=O)OCC)C1c1ccccc1/C=C/C(=O)OC(C)(C)C` [Prestw-1297], the “pThr231Tau/total Tau ratio Z-score” value amounted to 0.241 ± 1.2.
For `CCOc1cc(CC(=O)N[C@@H](CC(C)C)c2ccccc2N2CCCCC2)ccc1C(=O)O` [Prestw-1046], the “pThr231Tau/total Tau ratio Z-score” value was found to be 0.0801 ± 0.01.
As to `CCCCN(CCCC)CCC(O)c1cc2c(Cl)cc(Cl)cc2c2cc(C(F)(F)F)ccc12` (configuration not stated) [Prestw-1031], the “pThr231Tau/total Tau ratio Z-score” value was -2.73.
On to `C#C[C@]1(O)CC[C@H]2[C@@H]3CCc4cc(O)ccc4[C@H]3CC[C@@]21C` [Prestw-1405], for which the “pThr231Tau/total Tau ratio Z-score” value stood at 0.21 ± 1.4.
With `CC(C(=O)O)c1cccc(C(=O)c2ccccc2)c1` (configuration not stated) [Prestw-219] the figure was -0.844 ± 0.76; with `Nc1nc(N)c2nc(CNc3ccc(C(=O)N[C@@H](CCC(=O)O)C(=O)O)cc3)cnc2n1` [Dihydrofolate reductase inhibitor], 0.944 ± 0.22; with `CCOC(=O)c1ncn2c1CN(C)C(=O)c1cc(F)ccc1-2` [Benzodiazepine receptor antagonist], -0.315 ± 0.74.
Take `O=NN(CCCl)C(=O)NCCCl` [DNA alkylating agent; causes interstrand crosslinks]: the “pThr231Tau/total Tau ratio Z-score” value is 1.22 ± 0.67.
Next, `CCCC1O[C@@H]2C[C@H]3[C@@H]4CCC5=CC(=O)C=C[C@]5(C)[C@H]4[C@@H](O)C[C@]3(C)[C@]2(C(=O)CO)O1` (some centres not stated) [Prestw-518]: 1.43 ± 1.8; `O=C([O-])CN(CCN(CC(=O)[O-])CC(=O)O)CC(=O)[O-].[Na+].[Na+].[Na+]`: 0.286 ± 0.17; `NS(=O)(=O)c1cc2c(cc1Cl)NC(CSCc1ccccc1)=NS2(=O)=O` [Prestw-824]: 0.118 ± 0.27.
With `CC1(C)S[C@@H]2[C@H](NC(=O)[C@H](C(=O)O)c3ccsc3)C(=O)N2[C@H]1C(=O)O` [Prestw-1067] the figure was -0.609 ± 0.54; with `Cc1cc(NS(=O)(=O)c2ccc(N)cc2)no1` [Prestw-177], -0.171 ± 0.23.
Take `CN[C@@H]1[C@@H](O)[C@@H](O[C@@H]2[C@@H](O)[C@H](O[C@H]3OC(CN)=CC[C@H]3N)[C@@H](N)C[C@H]2N)OC[C@]1(C)O` [Prestw-506]: the “pThr231Tau/total Tau ratio Z-score” value was 0.178 ± 0.28.
With `CCOC(=O)n1ccn(C)c1=S` [Prestw-439] the figure was -1.06 ± 0.54; with `C[C@H](N)[C@H](O)c1cccc(O)c1` [Prestw-197], 0.21 ± 0.38.
Next, `CC1(C)S[C@@H]2[C@H](NC(=O)C(C(=O)O)c3ccccc3)C(=O)N2[C@H]1C(=O)O` (some centres not stated) [CARBENICILLIN DISODIUM    Therap cat:  Antibacterial]: 0.461 ± 0.24.
With `CCN(CC)CCOC(=O)C(Cc1cccc2ccccc12)CC1CCCO1` (configuration not stated) [Prestw-377] the figure was 0.944 ± 0.81; with `NC(=NCCCCCCN=C(N)/N=C(\N)Nc1ccc(Cl)cc1)/N=C(\N)Nc1ccc(Cl)cc1` [Prestw-143], -2.59 ± 0.29; with `O=C1CN(/N=C/c2ccc([N+](=O)[O-])o2)C(=O)N1` [Prestw-168], -1.99 ± 1.8.
For `Cc1ccccc1OCC(O)CO` (configuration not stated) [Prestw-178], the “pThr231Tau/total Tau ratio Z-score” value amounted to 0.109 ± 0.6.
On to `Nc1c2c(nc3ccccc13)CCCC2` [Prestw-329], for which the “pThr231Tau/total Tau ratio Z-score” value was 0.826 ± 1.7.
Next, `C=C[C@@]1(C)CC(=O)[C@]2(O)[C@@]3(C)[C@@H](O)CCC(C)(C)[C@@H]3[C@H](O)[C@H](OC(C)=O)[C@@]2(C)O1`: 0.47 ± 0.69; `CCN(CC)C(=S)SSC(=S)N(CC)CC` [Prestw-97]: -0.293 ± 1.2; `C/C(=C(\CCOP(=O)(O)O)SC(=O)c1ccccc1)N(C=O)Cc1cnc(C)nc1N` [Prestw-654]: 0.279 ± 0.0051.
`CC1(C)O[C@@H]2C[C@H]3[C@@H]4CCC5=CC(=O)C=C[C@]5(C)[C@H]4[C@@H](O)C[C@]3(C)[C@]2(C(=O)CO)O1` [DESONIDE, antiinflammatory, glucocorticoid]: the “pThr231Tau/total Tau ratio Z-score” value was 1.61 ± 1.1.
Consider `CCN(CC)CCOc1ccc2c(c1)C(=O)c1cc(OCCN(CC)CC)ccc1-2` [TILORONE    Therap cat: antiviral], for which the “pThr231Tau/total Tau ratio Z-score” value is -0.123 ± 0.21.
Next, `O=C(CCCCCCC(=O)Nc1ccccc1)NO` [Prestw-1362]: -2.52 ± 2.2; `NC[C@H]1O[C@H](O[C@H]2[C@H](O)[C@@H](O[C@H]3O[C@H](CO)[C@@H](O)[C@H](N)[C@H]3O)[C@H](N)C[C@@H]2N)[C@H](O)[C@@H](O)[C@@H]1O` [Prestw-394]: 1.07 ± 0.4; `CC[C@H]1OC(=O)C[C@@H](O)[C@H](C)[C@@H](O[C@@H]2O[C@H](C)[C@@H](O[C@H]3C[C@@](C)(O)[C@@H](O)[C@H](C)O3)[C@H](N(C)C)[C@H]2O)[C@@H](CC=O)C[C@@H](C)C(=O)/C=C/C(C)=C/[C@@H]1CO[C@@H]1O[C@H](C)[C@@H](O)[C@@H](OC)[C@H]1OC` [Prestw-1353]: -0.14 ± 0.82.
Next, `C[C@]12C[C@H](O)[C@H]3[C@@H](CCC4=CC(=O)CC[C@@]43C)[C@@H]1CC[C@@H]2C(=O)CO` [Prestw-432]: -1.17 ± 0.098; `CN(C)CCn1nnnc1SCC1=C(C(=O)O)N2C(=O)[C@@H](NC(=O)Cc3csc(N)n3)[C@H]2SC1` [Prestw-832]: 0.125 ± 0.34; `CN(C)CCn1nnnc1SCC1=C(C(=O)O)N2C(=O)[C@@H](NC(=O)Cc3csc(N)n3)[C@H]2SC1` [Prestw-482]: 0.152 ± 0.96.
